According to the supplement of paper PMC10727501:
Some of the results follow. Single values are uncertain here, since repeats match poorly.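 Researchers measured free-swimming zebrafish larvae's O-bend response probability to dark flashes (naive: first five; training: remaining flashes of four 60-flash blocks; test: later 60-flash block) and OMR turning toward alternating leftward/rightward LED motion. Six treated larvae were compared to sixty 0.1% DMSO controls, with |SSMD|≥2 marking a hit.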

What was measured:
Details in all cases: 10 µM; pre-incubation: 30-90 min
[1] = tested on: Danio rerio larvae (5 dpf, TLF); assay: OMR-Perf (SSMD vs DMSO vehicle); higher = higher than vehicle (e.g. higher dark-flash O-bend response probability, or better optomotor performance)
[2] = tested on: Danio rerio larvae (5 dpf, TLF); assay: Prob-Test (SSMD vs DMSO vehicle); higher = higher than vehicle (e.g. higher dark-flash O-bend response probability, or better optomotor performance)
[3] = tested on: Danio rerio larvae (5 dpf, TLF); assay: Prob-Naive (SSMD vs DMSO vehicle); higher = higher than vehicle (e.g. higher dark-flash O-bend response probability, or better optomotor performance)
[4] = tested on: Danio rerio larvae (5 dpf, TLF); assay: Prob-Train (SSMD vs DMSO vehicle); higher = higher than vehicle (e.g. higher dark-flash O-bend response probability, or better optomotor performance)

CCC1=C[C@@H]2C[N@](C1)Cc1c([nH]c3ccccc13)[C@@](C(=O)OC)(c1cc3c(cc1OC)N(C)[C@H]1[C@@](O)(C(=O)OC)[C@H](OC(C)=O)[C@]4(CC)C=CCN5CC[C@@]31[C@H]54)C2 [Vinorelbine (Navelbine)]
OMR-Perf [1]: 0.129 | Prob-Test [2]: 0.202 | Prob-Naive [3]: 0.106 | Prob-Train [4]: -0.0161

COC(=O)N=NC=C1C=[N+]([O-])c2ccccc2N1O [Carbadox]
OMR-Perf [1]: 0.472 | Prob-Test [2]: 0.419 | Prob-Naive [3]: -0.0763 | Prob-Train [4]: 0.652

O=C(Nc1cc(C(F)(F)F)ccc1N1CCCCC1)c1ccncc1
OMR-Perf [1]: 0.31 | Prob-Test [2]: -0.409 | Prob-Naive [3]: -3.04 | Prob-Train [4]: -1.25

CC1CC(OC(=O)C(O)c2ccccc2)CC(C)(C)C1 (stereo not drawn) [Cyclandelate]
OMR-Perf [1]: -0.115 | Prob-Test [2]: -0.49 | Prob-Naive [3]: -1.51 | Prob-Train [4]: -1.55

COc1cc2nccc(Oc3ccc(NC(=O)Nc4ccc(F)cc4F)c(F)c3)c2cc1OC
OMR-Perf [1]: -0.697 | Prob-Test [2]: 0.0289 | Prob-Naive [3]: 0.313 | Prob-Train [4]: -0.0659

COCCOc1ccc2c(c1)ncn2-c1ccc2cccc(N3CCC(N)CC3)c2n1
OMR-Perf [1]: 0.257 | Prob-Test [2]: 0.0373 | Prob-Naive [3]: 0.173 | Prob-Train [4]: -0.0543

CCN(CC)CC#CCOC(=O)C(O)(c1ccccc1)C1CCCCC1.Cl (stereo not drawn) [Oxybutynin chloride]
OMR-Perf [1]: -0.0816 | Prob-Test [2]: -0.96 | Prob-Naive [3]: -0.431 | Prob-Train [4]: -1.7

CCC(C)(C)c1ccc(CC(C)CN2C[C@@H](C)O[C@@H](C)C2)cc1.Cl (stereo partly drawn) [Amorolfine HCl]
OMR-Perf [1]: -1.3 | Prob-Test [2]: -1.46 | Prob-Naive [3]: -0.84 | Prob-Train [4]: -2.42

Cl.Cl.O=C(O)COCCN1CCN(C(c2ccccc2)c2ccc(Cl)cc2)CC1 (stereo not drawn) [Cetirizine DiHCl]
OMR-Perf [1]: 0.272 | Prob-Test [2]: 0.565 | Prob-Naive [3]: 0.581 | Prob-Train [4]: 0.383

CCN(c1cc(-c2ccc(CN3CCOCC3)cc2)cc(C(=O)NCc2c(C)cc(C)[nH]c2=O)c1C)C1CCOCC1
OMR-Perf [1]: -0.11 | Prob-Test [2]: -0.0479 | Prob-Naive [3]: 0.146 | Prob-Train [4]: -0.119

O=C1Nc2ccc(I)cc2/C1=C\c1cc(Br)c(O)c(Br)c1
OMR-Perf [1]: -0.673 | Prob-Test [2]: -0.211 | Prob-Naive [3]: 0.0876 | Prob-Train [4]: -0.0364

COc1cc(Nc2ncc3c(n2)-c2ccc(Cl)cc2C(c2c(F)cccc2OC)=NC3)ccc1C(=O)O [Alisertib (MLN8237)]
OMR-Perf [1]: -0.583 | Prob-Test [2]: -1.38 | Prob-Naive [3]: -2.88 | Prob-Train [4]: -2.78

Cl.O=C1CC2(CCCC2)CC(=O)N1CCCCN1CCN(c2ncccn2)CC1 [Buspirone HCl]
OMR-Perf [1]: -0.505 | Prob-Test [2]: -1.17 | Prob-Naive [3]: -0.0588 | Prob-Train [4]: -1.55

CS(=O)(=O)O.N#CC1(c2ccc(NC(=O)c3cccnc3NCc3ccncc3)cc2)CCCC1 [Apatinib]
OMR-Perf [1]: -0.497 | Prob-Test [2]: -0.0862 | Prob-Naive [3]: 0.0878 | Prob-Train [4]: -0.568

CCN(Cc1ccncc1)C(=O)C(CO)c1ccccc1 (stereo not drawn) [Tropicamide]
OMR-Perf [1]: -0.176 | Prob-Test [2]: -0.533 | Prob-Naive [3]: 0.357 | Prob-Train [4]: -0.215

NS(=O)(=O)c1cc2c(cc1C(F)(F)F)NC(Cc1ccccc1)NS2(=O)=O (stereo not drawn) [Bendroflumethiazide]
OMR-Perf [1]: -0.234 | Prob-Test [2]: 0.0694 | Prob-Naive [3]: 0.163 | Prob-Train [4]: -0.493

COc1ccc(-c2cc(=O)c3c(OC)c(OC)c(OC)c(OC)c3o2)cc1OC [Nobiletin]
OMR-Perf [1]: -0.421 | Prob-Test [2]: -1.66 | Prob-Naive [3]: -1.07 | Prob-Train [4]: -1.73

O=C(Oc1ccccc1C(=O)O)c1ccccc1O [Sasapyrine]
OMR-Perf [1]: -0.293 | Prob-Test [2]: 0.0139 | Prob-Naive [3]: -0.178 | Prob-Train [4]: -0.484

C/C=C/C1=C(C(=O)O)N2C(=O)[C@@H](NC(=O)[C@H](N)c3ccc(O)cc3)[C@H]2SC1.O [Cefprozil hydrate (Cefzil)]
OMR-Perf [1]: -0.0348 | Prob-Test [2]: -0.347 | Prob-Naive [3]: 0.13 | Prob-Train [4]: -0.109

CCOC(=O)c1ccc(NC2CCCCC2)c(N)c1 [Ferrostatin-1 (Fer-1)]
OMR-Perf [1]: -0.0316 | Prob-Test [2]: -1.3 | Prob-Naive [3]: -6.66 | Prob-Train [4]: -2.56

C[C@@H]1[C@@H](OC(=O)CCC(=O)O)O[C@H]2O[C@@]3(C)CC[C@H]4[C@@H](C)CC[C@@H]1[C@@]24OO3 [Artesunate]
OMR-Perf [1]: -0.0128 | Prob-Test [2]: -0.341 | Prob-Naive [3]: -0.21 | Prob-Train [4]: -0.143

C=CC(=O)Nc1cccc(Nc2nc(Nc3ccc(Oc4ccnc(C(=O)NC)c4)cc3)ncc2F)c1
OMR-Perf [1]: 0.356 | Prob-Test [2]: -0.609 | Prob-Naive [3]: -0.661 | Prob-Train [4]: -0.656

CC1COc2c(N3CCN(C)CC3)c(F)cc3c(=O)c(C(=O)O)cn1c23 (stereo not drawn) [Ofloxacin (Floxin)]
OMR-Perf [1]: 0.529 | Prob-Test [2]: -0.177 | Prob-Naive [3]: 0.134 | Prob-Train [4]: 0.0959

CCCCc1ncc(/C=C(\Cc2cccs2)C(=O)O)n1Cc1ccc(C(=O)O)cc1.CS(=O)(=O)O [Eprosartan Mesylate]
OMR-Perf [1]: -0.0987 | Prob-Test [2]: 0.316 | Prob-Naive [3]: -0.284 | Prob-Train [4]: -0.0578

Cc1cn2cc(C(=O)N(C)CCO)cc(N[C@@H]3CCOc4cccc(C)c43)c2n1
OMR-Perf [1]: -0.532 | Prob-Test [2]: 0.336 | Prob-Naive [3]: -0.592 | Prob-Train [4]: 0.351

c1cc(CN2CCCNCCNCCCNCC2)ccc1CN1CCCNCCNCCCNCC1 [Plerixafor (AMD3100)]
OMR-Perf [1]: 0.671 | Prob-Test [2]: 0.191 | Prob-Naive [3]: 0.351 | Prob-Train [4]: -0.401

COc1cc(CCC(C)=O)ccc1O [Vanillylacetone]
OMR-Perf [1]: 0.0345 | Prob-Test [2]: -0.294 | Prob-Naive [3]: 0.516 | Prob-Train [4]: 0.23
